These are yes or no findings as the source states them, for the method shown. Some results given as binding are weak or reduced against the parent protein; the word gives no strength. One block for each binder: values may come before it.
Legend:
Experiment in all cases: cryo-EM structure
PRIM1 (human) = target: T1, PRIM1 (human) (UniProt P49642)
T1 sequence: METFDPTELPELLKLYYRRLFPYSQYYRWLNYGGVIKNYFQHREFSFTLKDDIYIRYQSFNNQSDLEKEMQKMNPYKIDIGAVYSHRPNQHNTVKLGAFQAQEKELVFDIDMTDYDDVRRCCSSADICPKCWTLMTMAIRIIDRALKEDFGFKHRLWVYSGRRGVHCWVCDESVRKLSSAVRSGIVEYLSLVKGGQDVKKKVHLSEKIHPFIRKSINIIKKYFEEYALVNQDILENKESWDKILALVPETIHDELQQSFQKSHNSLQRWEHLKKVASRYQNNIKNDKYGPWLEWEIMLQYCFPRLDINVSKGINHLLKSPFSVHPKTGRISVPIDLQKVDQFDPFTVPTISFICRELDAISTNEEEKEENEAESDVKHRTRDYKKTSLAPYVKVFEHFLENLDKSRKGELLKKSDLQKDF

By UniProt entry, the sequences of proteins in these tests, tags left out.
UniProt P09884: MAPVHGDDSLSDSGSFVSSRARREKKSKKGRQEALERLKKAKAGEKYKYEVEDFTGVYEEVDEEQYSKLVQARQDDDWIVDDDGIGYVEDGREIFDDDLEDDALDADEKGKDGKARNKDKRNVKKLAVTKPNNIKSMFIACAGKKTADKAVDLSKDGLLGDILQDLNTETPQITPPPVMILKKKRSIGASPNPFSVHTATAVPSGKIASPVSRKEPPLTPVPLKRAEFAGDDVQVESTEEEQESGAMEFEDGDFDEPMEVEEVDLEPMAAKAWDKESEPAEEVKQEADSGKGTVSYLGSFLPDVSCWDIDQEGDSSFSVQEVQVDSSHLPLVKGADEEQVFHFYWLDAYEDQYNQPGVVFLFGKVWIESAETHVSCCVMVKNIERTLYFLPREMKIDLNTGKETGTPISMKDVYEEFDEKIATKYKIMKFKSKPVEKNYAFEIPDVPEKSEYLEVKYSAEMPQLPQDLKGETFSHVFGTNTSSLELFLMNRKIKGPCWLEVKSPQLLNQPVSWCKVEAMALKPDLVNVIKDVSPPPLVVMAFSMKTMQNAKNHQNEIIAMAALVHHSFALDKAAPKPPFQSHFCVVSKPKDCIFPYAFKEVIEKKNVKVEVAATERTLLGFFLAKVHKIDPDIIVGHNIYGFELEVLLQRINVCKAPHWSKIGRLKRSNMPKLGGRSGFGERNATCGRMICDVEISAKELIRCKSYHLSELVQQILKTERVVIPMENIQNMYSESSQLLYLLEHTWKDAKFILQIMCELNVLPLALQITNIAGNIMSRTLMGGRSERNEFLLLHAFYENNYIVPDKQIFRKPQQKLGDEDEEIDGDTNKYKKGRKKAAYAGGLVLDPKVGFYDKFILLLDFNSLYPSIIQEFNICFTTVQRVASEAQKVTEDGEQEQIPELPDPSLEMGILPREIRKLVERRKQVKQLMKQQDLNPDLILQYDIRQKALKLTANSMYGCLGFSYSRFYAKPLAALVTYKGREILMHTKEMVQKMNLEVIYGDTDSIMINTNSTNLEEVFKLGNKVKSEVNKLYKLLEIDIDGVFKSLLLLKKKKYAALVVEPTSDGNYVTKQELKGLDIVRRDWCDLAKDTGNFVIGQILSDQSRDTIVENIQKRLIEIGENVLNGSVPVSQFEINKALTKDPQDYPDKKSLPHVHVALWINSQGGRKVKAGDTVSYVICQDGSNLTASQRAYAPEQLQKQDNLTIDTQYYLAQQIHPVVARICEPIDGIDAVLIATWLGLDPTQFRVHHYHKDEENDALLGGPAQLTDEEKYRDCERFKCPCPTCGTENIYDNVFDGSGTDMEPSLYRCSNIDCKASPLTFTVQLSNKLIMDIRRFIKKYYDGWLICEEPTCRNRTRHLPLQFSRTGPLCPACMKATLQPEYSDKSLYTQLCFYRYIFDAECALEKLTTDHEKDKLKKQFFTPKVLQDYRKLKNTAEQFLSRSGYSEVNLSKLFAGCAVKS

PRIM2 (human) = target: T2, PRIM2 (human) (UniProt P49643)
T2 sequence: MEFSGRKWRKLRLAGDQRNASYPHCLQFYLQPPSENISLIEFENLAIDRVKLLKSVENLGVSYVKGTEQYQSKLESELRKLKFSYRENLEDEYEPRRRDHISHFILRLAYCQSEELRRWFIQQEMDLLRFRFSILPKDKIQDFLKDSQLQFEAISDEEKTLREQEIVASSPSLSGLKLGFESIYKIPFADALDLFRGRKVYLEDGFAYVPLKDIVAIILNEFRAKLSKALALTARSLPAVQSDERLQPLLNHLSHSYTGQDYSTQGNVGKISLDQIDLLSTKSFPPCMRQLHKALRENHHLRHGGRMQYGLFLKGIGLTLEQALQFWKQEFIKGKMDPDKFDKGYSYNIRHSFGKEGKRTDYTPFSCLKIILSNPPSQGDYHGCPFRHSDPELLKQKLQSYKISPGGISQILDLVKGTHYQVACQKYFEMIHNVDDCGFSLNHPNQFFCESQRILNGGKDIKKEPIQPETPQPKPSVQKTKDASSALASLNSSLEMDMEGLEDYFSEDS

POLA2 (human) = target: T3, POLA2 (human) (UniProt Q14181)
T3 sequence: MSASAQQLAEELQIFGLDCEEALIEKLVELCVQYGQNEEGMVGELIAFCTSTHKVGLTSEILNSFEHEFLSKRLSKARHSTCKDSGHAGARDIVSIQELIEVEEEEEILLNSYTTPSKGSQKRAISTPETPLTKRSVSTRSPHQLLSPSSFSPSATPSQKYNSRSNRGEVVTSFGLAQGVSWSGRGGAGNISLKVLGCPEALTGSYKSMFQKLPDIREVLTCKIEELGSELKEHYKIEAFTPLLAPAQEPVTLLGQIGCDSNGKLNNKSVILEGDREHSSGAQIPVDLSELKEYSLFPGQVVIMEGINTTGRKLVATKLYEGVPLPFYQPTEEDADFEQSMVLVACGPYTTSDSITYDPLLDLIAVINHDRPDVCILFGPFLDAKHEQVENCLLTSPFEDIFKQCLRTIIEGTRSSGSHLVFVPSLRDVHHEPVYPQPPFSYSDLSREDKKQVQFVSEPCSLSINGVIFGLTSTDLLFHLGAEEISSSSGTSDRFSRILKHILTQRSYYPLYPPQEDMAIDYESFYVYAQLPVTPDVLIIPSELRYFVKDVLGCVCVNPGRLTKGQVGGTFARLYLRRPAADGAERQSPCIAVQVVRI

POLA1 (human) = POLA1 (human) (UniProt P09884)
TEN1 (human) = target: T4, TEN1 (human) (UniProt Q86WV5)
T4 sequence: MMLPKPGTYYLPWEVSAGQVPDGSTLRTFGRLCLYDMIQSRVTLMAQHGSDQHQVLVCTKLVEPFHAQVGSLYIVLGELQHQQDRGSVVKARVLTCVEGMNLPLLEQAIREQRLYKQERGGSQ

CTC1 (human) = target: T5, CTC1 (human) (UniProt Q2NKJ3)
T5 sequence: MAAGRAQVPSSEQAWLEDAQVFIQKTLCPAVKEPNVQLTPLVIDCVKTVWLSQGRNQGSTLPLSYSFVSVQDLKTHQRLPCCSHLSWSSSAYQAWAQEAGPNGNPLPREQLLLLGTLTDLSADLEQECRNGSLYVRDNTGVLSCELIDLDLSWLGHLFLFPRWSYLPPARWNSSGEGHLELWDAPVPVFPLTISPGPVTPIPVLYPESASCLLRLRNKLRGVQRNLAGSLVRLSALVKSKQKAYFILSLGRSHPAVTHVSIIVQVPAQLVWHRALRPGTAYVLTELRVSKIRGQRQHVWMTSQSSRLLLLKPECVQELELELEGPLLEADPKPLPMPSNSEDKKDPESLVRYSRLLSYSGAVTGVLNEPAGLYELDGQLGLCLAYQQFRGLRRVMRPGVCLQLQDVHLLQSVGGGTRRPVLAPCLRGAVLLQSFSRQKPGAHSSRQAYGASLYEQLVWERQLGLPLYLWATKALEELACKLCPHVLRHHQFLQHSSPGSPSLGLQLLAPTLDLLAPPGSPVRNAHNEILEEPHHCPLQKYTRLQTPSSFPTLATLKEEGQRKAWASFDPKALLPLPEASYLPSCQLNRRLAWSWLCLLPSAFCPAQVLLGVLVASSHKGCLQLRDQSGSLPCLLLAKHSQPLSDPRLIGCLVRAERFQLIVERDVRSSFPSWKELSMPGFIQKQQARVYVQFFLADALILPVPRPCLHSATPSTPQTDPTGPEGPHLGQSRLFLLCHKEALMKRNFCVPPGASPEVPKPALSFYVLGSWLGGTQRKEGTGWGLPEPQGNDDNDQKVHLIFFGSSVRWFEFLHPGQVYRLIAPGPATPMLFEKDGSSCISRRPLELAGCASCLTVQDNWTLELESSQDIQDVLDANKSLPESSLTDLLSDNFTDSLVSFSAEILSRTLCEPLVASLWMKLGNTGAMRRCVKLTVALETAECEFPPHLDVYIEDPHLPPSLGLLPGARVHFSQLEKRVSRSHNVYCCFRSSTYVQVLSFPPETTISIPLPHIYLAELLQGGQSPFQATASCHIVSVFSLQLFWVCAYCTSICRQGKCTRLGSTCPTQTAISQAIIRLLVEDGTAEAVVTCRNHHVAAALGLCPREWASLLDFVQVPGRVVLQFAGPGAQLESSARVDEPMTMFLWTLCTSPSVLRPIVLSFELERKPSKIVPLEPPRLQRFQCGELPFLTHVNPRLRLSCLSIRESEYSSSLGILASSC

binding (PRIM1 (human)): binds
binding (PRIM2 (human)): binds
binding (POLA2 (human)): binds
binding (POLA1 (human)): binds
B1: TEN1 (protein, UniProt Q86WV5 1-123)
chain: T4 sequence

binding (PRIM1 (human)): binds
binding (TEN1 (human)): binds
binding (CTC1 (human)): binds
binding (POLA1 (human)): binds
B2: STN1 (protein, UniProt Q9H668 1-368)
chain: MQPGSSRCEEETPSLLWGLDPVFLAFAKLYIRDILDMKESRQVPGVFLYNGHPIKQVDVLGTVIGVRERDAFYSYGVDDSTGVINCICWKKLNTESVSAAPSAARELSLTSQLKKLQETIEQKTKIEIGDTIRVRGSIRTYREEREIHATTYYKVDDPVWNIQIARMLELPTIYRKVYDQPFHSSALEKEEALSNPGALDLPSLTSLLSEKAKEFLMENRVQSFYQQELEMVESLLSLANQPVIHSASSDQVNFKKDTTSKAIHSIFKNAIQLLQEKGLVFQKDDGFDNLYYVTREDKDLHRKIHRIIQQDCQKPNHMEKGCHFLHILACARLSIRPGLSEAVLQQVLELLEDQSDIVSTMEHYYTAF

binding (POLA1 (human)): binds
B3: CTC1 (protein, UniProt Q2NKJ3 1-1217)
chain: T5 sequence
